Experimental data reported in PubChem BioAssay AID720504 (National Center for Advancing Translational Sciences (NCATS), 2013).
Among all 360,000 compounds or so, about 10,000 (2.8%) were called active. This list was built around the results that the source calls inconclusive (neither active nor inactive); the mix of calls is not that of the screen. The call rests on the fitted dose curve; in most records, active means well fitted inhibition curve with a large enough effect; inconclusive means small, poorly fitted or top-dose-only effect; inactive means flat fitted curve, though single readings scatter. Potencies beside an inconclusive call are fits to weak or partial responses and may not hold up.

Protein sequences, listed by entry. Tags and fused reporters are not part of them.
UniProt P53350, whole entry, looked up: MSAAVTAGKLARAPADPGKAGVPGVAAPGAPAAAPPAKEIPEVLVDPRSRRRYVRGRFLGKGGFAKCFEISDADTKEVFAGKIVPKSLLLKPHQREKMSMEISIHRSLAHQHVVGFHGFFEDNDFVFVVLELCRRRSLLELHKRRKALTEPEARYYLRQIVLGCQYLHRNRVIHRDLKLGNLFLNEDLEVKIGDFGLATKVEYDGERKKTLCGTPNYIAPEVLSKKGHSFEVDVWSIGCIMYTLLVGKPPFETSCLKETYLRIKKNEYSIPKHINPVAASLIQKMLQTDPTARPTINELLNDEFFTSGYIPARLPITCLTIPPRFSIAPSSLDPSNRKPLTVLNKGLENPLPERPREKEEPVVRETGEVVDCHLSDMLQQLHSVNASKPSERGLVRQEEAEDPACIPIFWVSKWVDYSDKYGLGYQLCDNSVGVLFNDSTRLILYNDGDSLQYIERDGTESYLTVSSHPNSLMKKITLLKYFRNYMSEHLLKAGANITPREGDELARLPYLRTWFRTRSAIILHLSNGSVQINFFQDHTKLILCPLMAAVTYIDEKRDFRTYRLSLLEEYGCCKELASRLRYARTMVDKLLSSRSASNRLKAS

Each molecule was assayed against Serine/threonine-protein kinase PLK1 (Homo sapiens) (UniProt P53350) (assay: qHTS for Inhibitors of PLK1-PDB (polo-like kinase 1 - polo-box domain): Primary Screen). Details: Plk1 PBD binding of FITC phosphopeptide, fluorescence polarization.
Further: nearly all actives have a fitted effect of over 65% in size.
On the % scale 0 is the no-effect control and ±100 the full control effect; potency means the concentration at half of the fitted maximal effect.
Wherever max response, negative = inhibition is given: series mostly up to about 57 µM.

SMILES	Potency	max response, negative = inhibition
Cc1ccc2nc(SCc3nc4ccccc4c(=O)[nH]3)[nH]c2c1	inconclusive: 37.7 µM [inhibitor, partial curve]	
C#CCN1CCc2onc(-c3ccccc3OC)c2C1=O		inactive: -4.13%
Cc1ccc([N+](=O)[O-])c2c1C(N1CCCC1)C(C)(C)O2 (stereo not drawn)	inconclusive: 23.8 µM [inhibitor, single point]	
CCOC(=O)C1=C(C)OC(N)=C(C#N)C1c1cc2ccccc2nc1N1CCCCC1 (stereo not drawn)	inconclusive: 25.1 µM [inhibitor, single point]	
Cc1ccc(C(=S)N2CCN(Cc3ccccc3)CC2)s1	active: 2.99 µM	
CCOC(=O)c1cc(C(=O)Nc2sc3c(c2C#N)CCCC3)nn1C	active: 21.2 µM	
COc1cccc(C(C2=C(O)CC(C)(C)CC2=O)C2C(=O)CC(C)(C)CC2=O)c1 (stereo not drawn)	inconclusive: 10.6 µM [inhibitor, partial curve]	
Oc1ccc(-c2csc(Nc3ccccn3)n2)cc1O	inconclusive: 23.8 µM [inhibitor, single point]	
CCn1c2ccccc2c2cc(NC(=O)c3ccc(Br)o3)ccc21	inconclusive: 29.9 µM [inhibitor, partial curve]	
C/C(=N\NC(=O)c1ccncc1)c1cc2ccccc2oc1=O	inconclusive: 16.8 µM [inhibitor, partial curve]	
COc1cccc(OC)c1NC(=O)CN1CCN(C)CC1		inactive: -4.62%
O=C(COc1ccc(Cl)cc1Cl)N(c1ccccn1)C1CCCCC1		inactive: -8.05%
C#CCNc1nc(C(C)C)nc2c1nnn2Cc1ccccc1F	inconclusive: 18.9 µM [inhibitor, partial curve]	
O=[N+]([O-])c1cc(N=Nc2ccc3ccccc3c2)ccc1O	inconclusive: 26.7 µM [inhibitor, partial curve]	
CCC(Sc1ncccc1C(=O)OC(C)C)C(=O)NCc1ccco1 (stereo not drawn)	inconclusive: 23.8 µM [inhibitor, partial curve]	
CC(=O)Nc1c([N+](=O)[O-])cc2[nH]c(=O)[nH]c2c1[N+](=O)[O-]		inconclusive: -33.9% [inhibitor]
O=C(O)c1ccccc1NSc1ccccc1[N+](=O)[O-]	active: 10.6 µM	
COc1ccc([C@H]2[C@H](C(=O)OC(C)(C)C)N3N=Cc4ccccc4C3C23C(=O)c2ccccc2C3=O)cc1OC (stereo partly drawn)	inconclusive: 15 µM [inhibitor, partial curve]	
CCC(=O)Nc1cc(-c2nn(C)c(=O)c3ccccc23)ccc1N1CCOCC1		inactive: -7.78%
S=c1[nH]cc2cnccn12	inconclusive: 23.8 µM [inhibitor, single point]	
Nc1c(N2CCCC2)cc(Cl)c2nonc12	active: 21.2 µM	
CCN1C(=O)C2(C(C#N)=C(N)Oc3c2c(C)nn3-c2ccccc2)c2ccccc21 (stereo not drawn)	inconclusive: 23.8 µM [inhibitor, partial curve]	
C/C(=N/NS(=O)(=O)c1ccc(F)cc1)c1ccncc1	inconclusive: 29.9 µM [inhibitor, partial curve]	

SMILES	Potency	max response, negative = inhibition
CCN1CCN(c2cc(C)nc(-c3ccccc3O)n2)CC1		inconclusive: -35.3% [inhibitor]
Cc1ccc(N=C2NC(=O)/C(=C/C=C/c3ccco3)S2)cc1C	inconclusive: 13.4 µM [inhibitor, partial curve]	
O=C(CSc1ccc2nnc(-c3ccc(Cl)cc3)n2n1)N1CCc2ccccc21	inconclusive: 21.2 µM [inhibitor, partial curve]	
COc1cccc(CN2C(=O)C3(C(C#N)=C(N)OC4=C3C(=O)CCC4)c3ccccc32)c1 (stereo not drawn)		inactive: 0.403%
O=C(CCn1c2c(c3ccccc31)CCCC2)NNC(=O)c1ccc(Cl)c([N+](=O)[O-])c1	active: 29.9 µM	
CCSc1nnc(NC(=O)CSc2sc3c(O)cc(=O)[nH]c3c2C#N)s1	active: 11.9 µM	
O=C(NC(Cc1c[nH]c2ccccc12)C(=O)N/N=C/c1cccc2ccccc12)c1cccs1 (stereo not drawn)		inactive: -10.6%
CC(=O)Nc1c(C)ccc2nsnc12		inactive: -0.917%
S=c1[nH]nc(-c2cc(-c3ccccn3)nc3ccccc23)o1	inconclusive: 18.9 µM [inhibitor, partial curve]	
Nn1c(SCC(=O)Nc2ccc(N3CCOCC3)cc2)nnc1-c1ccccc1F		inactive: -20.8%
O=C(Nc1ccc(C(F)(F)F)cc1)c1ccccc1Br	active: 23.8 µM	
Cc1cc(C)c2c(-n3cccc3)c(C(=O)NNS(=O)(=O)c3ccc(Cl)cc3)sc2n1		inactive: -21.5%
O=C(c1ccc(S(=O)(=O)Cc2cc(F)ccc2F)c([N+](=O)[O-])c1)N1CCCC1	active: 10.6 µM	
CCN(C(=O)COC(=O)c1cccc(S(=O)(=O)NCc2ccccc2)c1)c1ccccc1		inactive: -6.41%
O=C(CCS(=O)(=O)c1ccccc1)N(CCCN1CCOCC1)c1nc2ccc(F)cc2s1		inconclusive: -33.1% [inhibitor]
Cc1cccc(OCCNC(=O)CSc2ccc(C(F)(F)F)cc2[N+](=O)[O-])c1	inconclusive: 21.2 µM [inhibitor, single point]	
CNC1(c2nnnn2-c2c(C)cccc2C)CCOC(C)(C)C1 (stereo not drawn)		inconclusive: -36.5% [inhibitor]
COc1ccc(CNC(=O)C[C@H]2C(=O)N(C3CCCCC3)C[C@@H]2Cc2ccccc2)cc1	inconclusive: 29.9 µM [inhibitor, single point]	
C/C=C1\COC(C(=O)NCCCN2CCCC2=O)(C(F)(F)F)C=C1C=C(C)C (stereo not drawn)	inconclusive: 23.8 µM [inhibitor, partial curve]	
COc1cccc(NC(=O)COC(=O)CCSc2ccccc2)c1	inconclusive: 23.8 µM [inhibitor, single point]	
COc1cc(C)c(NC(=S)Nc2ccc(C)c(Cl)c2)cc1OC	inconclusive: 18.9 µM [inhibitor, partial curve]	
O=C(O)CSc1cccnc1Sc1ccc(Cl)cc1	inconclusive: 16.8 µM [inhibitor, partial curve]	
O=C(Nc1ccccc1)c1cc([N+](=O)[O-])ccc1NCc1cccnc1		inconclusive: -12.6% [inhibitor]

SMILES	Potency	max response, negative = inhibition
Cc1nc(-c2ccc(NC(=O)CC(C)C)cc2)cs1	inconclusive: 18.9 µM [inhibitor, partial curve]	
O=c1cc(C(O)C[N+](=O)[O-])occ1OCc1ccccc1 (stereo not drawn)	inconclusive: 37.7 µM [inhibitor, partial curve]	
CCCCC[C@H]1CN(C2CCCCC2)C(=O)[C@@H]1CC(=O)NCc1ccc(OC)cc1	inconclusive: 37.7 µM [inhibitor, single point]	
CCOC(=O)c1sc2nc(-c3ccco3)c3c(c2c1N)CC(C)(C)OC3	inconclusive: 16.8 µM [inhibitor, partial curve]	
CCN=C1SC(C(=O)Nc2cccc(C)c2)CC(=O)N1CC (stereo not drawn)	inconclusive: 26.7 µM [inhibitor, partial curve]	
C[C@@H]1CN([C@@H](C)CO)C(=O)CCCn2nncc2CO[C@H]1CN(C)C(=O)Nc1ccc(F)cc1		inconclusive: -35.1% [inhibitor]
CC1(C)Cc2ccccc2C2=C(C(=O)N3CCCCCC3)C(=O)C(=O)N21	inconclusive: 4.74 µM [inhibitor, single point]	
O=C(CSc1cn(CC(=O)N2CCCCC2)c2ccccc12)NCC1CCCO1 (stereo not drawn)	active: 26.7 µM	
O=C(N/N=C/c1ccc(Cl)cc1)c1nc2ccc([N+](=O)[O-])cc2c(=O)[nH]1	active: 18.9 µM	
CSc1nsc2nc(=O)c(/C=C3\C(C)=Nc4ccc(C)cc43)c(N)n12	inconclusive: 37.7 µM [inhibitor, single point]	
COc1ccc(-c2cnc3c(NC=O)cc(-c4ccccc4OC)cn23)cc1OC		inactive: -1.63%
CCOCC(=O)Nc1c(C(=O)N2CCN(c3ncccn3)CC2)oc2ccccc12	inconclusive: 29.9 µM [inhibitor, single point]	
COC(=O)c1c(SCC(=O)Nc2ccc(C)c(C)c2)nc(=O)[nH]c1C	inconclusive: 37.7 µM [inhibitor, single point]	
CCN1C(=NCc2cc(OC)c(OC)c(OC)c2)N[C@@H](c2cccc(C(F)(F)F)c2)C(C(=O)OC)=C1C		inconclusive: -31.4% [inhibitor]
O=C(COc1ccccc1Cl)Nc1ccc(S(=O)(=O)N2CCOCC2)cc1		inactive: 0.356%
CC[C@]12c3[nH]c4cc(-c5ccco5)ccc4c3CCN1C(=O)[C@@H](CC(=O)NCc1ccco1)C[C@@H]2C(=O)N1CCN(C(=O)C2CC2)CC1	inconclusive: 21.2 µM [inhibitor, single point]	
CC1=C(C)CC2C(=O)N(c3cccc4ccccc34)C(=O)C2C1 (stereo not drawn)	inconclusive: 37.7 µM [inhibitor, single point]	
CC1CCN(Cc2c(O)ccc3c2O/C(=C\c2ccco2)C3=O)CC1	inconclusive: 13.4 µM [inhibitor, partial curve]	
Cc1cccc(OCc2nc3ccccc3c(=O)n2N)c1	active: 23.8 µM	
CCCCCC(=O)N(O)C1CC(=O)N(c2ccccc2)C1=O (stereo not drawn)	inconclusive: 26.7 µM [inhibitor, single point]	
Cc1ccc(OCCSc2ncccn2)c(C)c1		inactive: -8.45%
O=C(O)c1ccc(NC(=O)c2cn(-c3ccccc3)nc2-c2cccc(Cl)c2)cc1	inconclusive: 26.7 µM [inhibitor, single point]	

5 compounds out of the list, arranged by SMILES length, largest number first.
SMILES	Potency	max response, negative = inhibition
CCN1C(=NCc2cc(OC)c(OC)c(OC)c2)N[C@@H](c2cccc(C(F)(F)F)c2)C(C(=O)OC)=C1C		inconclusive: -31.4% [inhibitor]
COc1ccc(-c2cnc3c(NC=O)cc(-c4ccccc4OC)cn23)cc1OC		inactive: -1.63%
CC1=C(C)CC2C(=O)N(c3cccc4ccccc34)C(=O)C2C1 (stereo not drawn)	inconclusive: 37.7 µM [inhibitor, single point]	
Cc1nc(-c2ccc(NC(=O)CC(C)C)cc2)cs1	inconclusive: 18.9 µM [inhibitor, partial curve]	
Cc1cccc(OCc2nc3ccccc3c(=O)n2N)c1	active: 23.8 µM	
